Reference: paper PMC11796423
No constants are given. Whether binding was seen depends on the method and setting. Binding seen in cells or lysates may run through a third protein. Here binding means that the protein was enriched with, or labelled near, the bait; the list need not be complete.

The chains behind the UniProt entries cited, without tags or fusion partners. Where a name states a change or a piece, a line headed by the entry shows the natural chain unless it says otherwise. Residues count along the entry.
UniProt P16070, residues 21-742: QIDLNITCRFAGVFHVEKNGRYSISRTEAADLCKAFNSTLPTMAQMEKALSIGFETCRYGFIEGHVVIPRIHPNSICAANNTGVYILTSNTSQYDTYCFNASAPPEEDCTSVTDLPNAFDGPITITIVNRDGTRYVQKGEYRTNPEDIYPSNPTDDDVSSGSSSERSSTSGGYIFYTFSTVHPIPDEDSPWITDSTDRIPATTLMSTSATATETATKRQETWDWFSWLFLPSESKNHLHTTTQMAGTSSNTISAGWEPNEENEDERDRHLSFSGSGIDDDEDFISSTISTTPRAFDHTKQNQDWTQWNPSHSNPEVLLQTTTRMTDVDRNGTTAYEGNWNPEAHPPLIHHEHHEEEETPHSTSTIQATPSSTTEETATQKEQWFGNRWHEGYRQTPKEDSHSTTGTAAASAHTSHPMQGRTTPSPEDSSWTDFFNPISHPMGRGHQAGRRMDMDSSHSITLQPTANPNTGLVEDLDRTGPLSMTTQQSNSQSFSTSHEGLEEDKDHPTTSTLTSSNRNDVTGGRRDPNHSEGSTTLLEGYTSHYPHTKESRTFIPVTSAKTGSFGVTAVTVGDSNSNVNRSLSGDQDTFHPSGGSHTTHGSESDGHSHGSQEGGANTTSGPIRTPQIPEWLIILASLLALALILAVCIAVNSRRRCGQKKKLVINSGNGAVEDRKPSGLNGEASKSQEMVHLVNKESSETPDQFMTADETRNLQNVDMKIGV
UniProt Q99075, residues 20-208: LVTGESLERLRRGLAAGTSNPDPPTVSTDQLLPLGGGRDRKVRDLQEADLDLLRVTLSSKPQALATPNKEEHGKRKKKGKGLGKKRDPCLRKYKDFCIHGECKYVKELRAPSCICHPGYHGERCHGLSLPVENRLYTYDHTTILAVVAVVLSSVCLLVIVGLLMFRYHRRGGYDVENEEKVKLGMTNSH
UniProt P00588: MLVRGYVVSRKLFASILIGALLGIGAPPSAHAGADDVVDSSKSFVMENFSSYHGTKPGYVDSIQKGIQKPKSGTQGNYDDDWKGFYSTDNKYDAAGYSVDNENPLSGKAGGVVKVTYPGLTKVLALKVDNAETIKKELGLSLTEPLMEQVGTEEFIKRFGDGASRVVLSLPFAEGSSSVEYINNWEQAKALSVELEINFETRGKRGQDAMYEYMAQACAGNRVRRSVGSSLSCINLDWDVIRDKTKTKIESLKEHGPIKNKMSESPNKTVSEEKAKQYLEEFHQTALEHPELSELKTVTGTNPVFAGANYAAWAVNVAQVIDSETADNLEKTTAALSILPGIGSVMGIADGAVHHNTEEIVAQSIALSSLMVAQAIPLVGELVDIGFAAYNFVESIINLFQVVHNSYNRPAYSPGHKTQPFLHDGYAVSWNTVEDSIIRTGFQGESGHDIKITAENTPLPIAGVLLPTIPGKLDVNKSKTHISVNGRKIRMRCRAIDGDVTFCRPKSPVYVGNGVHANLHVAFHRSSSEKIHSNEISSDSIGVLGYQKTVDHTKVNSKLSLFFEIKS

Legend:
[1] = molecular target: CD44 (human (endogenous in ARN8)) (UniProt P16070); assay: proximity labelling; only the binder purified
[2] = molecular target: T1, CD81 (human (endogenous in ARN8)) (UniProt P60033); assay: proximity labelling; only the binder purified
T1 sequence: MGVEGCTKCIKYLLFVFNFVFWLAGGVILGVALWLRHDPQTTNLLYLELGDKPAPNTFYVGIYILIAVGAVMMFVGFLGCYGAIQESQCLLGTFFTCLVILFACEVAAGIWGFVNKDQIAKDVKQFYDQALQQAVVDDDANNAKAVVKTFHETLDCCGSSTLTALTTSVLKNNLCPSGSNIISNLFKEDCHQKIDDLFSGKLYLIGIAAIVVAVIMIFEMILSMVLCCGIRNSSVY

[3] = molecular target: HBEGF overexpressed in ARN8 cells (ARN8:HBEGF^+) (UniProt Q99075); assay: proximity labelling; 150 nM recombinant protein and 50 µM biotin with RIPA lysate supernatant of ARN8 cells (legend: suspended cells), 10 minutes at RT; western blot with streptavidin and anti-HB-EGF; only the binder purified

Measured: binding

dtR-TurboID (receptor-binding domain of diphtheria toxin N-terminal to TurboID) (from UniProt P00588) (domain or fragment)
binds: [1] | [2] | [3]
